Data set [1] deals with T1, Pgp (Homo sapiens, UniProt P08183). The settings on record: clinically relevant doses; cut-off for systemic Pgp inhibition.
The conditions of data set [2]: geometric mean, cited from earlier work; for AUC ratio: AUCinf; for AUC ratio / Cmax ratio: observed, CYP2C9 *1/*1 + *1/*2; for AUCinf ratio: *1*1 subgroup.
For data set [3], the target named is T1, Pgp. Put plainly: cell-based.

Amino acid sequences for entries named in this document (tags omitted).
UniProt P08183, whole entry: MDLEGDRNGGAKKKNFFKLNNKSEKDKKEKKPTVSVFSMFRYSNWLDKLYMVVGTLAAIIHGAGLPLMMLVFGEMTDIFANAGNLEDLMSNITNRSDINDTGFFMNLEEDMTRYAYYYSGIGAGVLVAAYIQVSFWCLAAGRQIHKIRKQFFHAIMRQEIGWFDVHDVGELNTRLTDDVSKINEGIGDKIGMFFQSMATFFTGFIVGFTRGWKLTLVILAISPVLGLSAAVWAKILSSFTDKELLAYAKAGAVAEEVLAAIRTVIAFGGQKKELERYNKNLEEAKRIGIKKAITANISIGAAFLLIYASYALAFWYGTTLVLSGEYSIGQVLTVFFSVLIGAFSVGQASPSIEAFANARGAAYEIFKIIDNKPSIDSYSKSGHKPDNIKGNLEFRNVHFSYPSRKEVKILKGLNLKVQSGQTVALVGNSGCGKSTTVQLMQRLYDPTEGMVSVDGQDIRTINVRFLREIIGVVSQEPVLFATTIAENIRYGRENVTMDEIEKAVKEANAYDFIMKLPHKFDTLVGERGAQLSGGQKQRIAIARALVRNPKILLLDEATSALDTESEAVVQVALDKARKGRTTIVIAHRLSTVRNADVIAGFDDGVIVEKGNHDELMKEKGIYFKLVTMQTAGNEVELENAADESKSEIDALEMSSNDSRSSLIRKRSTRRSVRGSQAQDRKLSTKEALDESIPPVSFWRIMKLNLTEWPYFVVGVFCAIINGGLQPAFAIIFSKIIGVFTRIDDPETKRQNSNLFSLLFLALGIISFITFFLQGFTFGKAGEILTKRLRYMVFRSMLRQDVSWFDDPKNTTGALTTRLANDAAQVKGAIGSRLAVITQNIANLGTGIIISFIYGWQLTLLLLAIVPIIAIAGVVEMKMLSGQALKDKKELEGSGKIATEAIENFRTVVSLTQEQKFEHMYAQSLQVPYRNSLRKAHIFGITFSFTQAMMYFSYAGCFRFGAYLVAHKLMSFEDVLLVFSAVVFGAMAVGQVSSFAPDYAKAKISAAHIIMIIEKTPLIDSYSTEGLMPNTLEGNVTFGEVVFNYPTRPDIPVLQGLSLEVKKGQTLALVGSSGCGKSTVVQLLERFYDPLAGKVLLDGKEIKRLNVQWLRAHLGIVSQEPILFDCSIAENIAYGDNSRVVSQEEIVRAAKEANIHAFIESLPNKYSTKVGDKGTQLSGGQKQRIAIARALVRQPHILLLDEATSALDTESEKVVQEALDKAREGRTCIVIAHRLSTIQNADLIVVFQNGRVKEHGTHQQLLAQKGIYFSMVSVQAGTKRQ

Read-outs that look alike come from different tables or passages of the source.

Consider one compound from PMC8452301 (CPT: Pharmacometrics & Systems Pharmacology, 2021).

Usually Cmax stands for the maximum level reached in the sampled fluid or tissue. In general, IC50 refers to the concentration that gives 50% inhibition. High values mean a need for much substance, low ones inhibition by little substance. In the case of `COc1cc(OC)cc(N(CCNC(C)C)c2ccc3ncc(-c4cnn(C)c4)nc3c2)c1` [erdafitinib], the “R (50*[Cmax]free)” value in data set [1] was 0.57 µM. Besides, the highest concentration (Cmax) in data set [2] (4-mg single dose, no inhibitor, Cohort A n=17) was 0.134 µg/mL. For the same compound, the AUC ratio in data set [2] (with 200-mg q.d. itraconazole) is listed as 1.34; in data set [2] (with 400-mg q.d. fluconazole), 1.49. Moreover, the Cmax ratio in data set [2] (with 200-mg q.d. itraconazole) is on record as 1.04; in data set [2] (with 400-mg q.d. fluconazole), 1.21. The AUCinf ratio in data set [2] (with fluconazole) was 1.52; in data set [2] (with itraconazole) it was 1.23. The same compound registered a concentration for half-maximal inhibition (IC50) in data set [3] of 0.67 µM.
